PubChem BioAssay AID1671195 | Yale University | 2021

Aim: 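Regulators of LDL receptor activity judged by labelled LDL uptake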 (primary screen)
System: human Huh7 hepatoma cells
Reagents: siRNA pool against human genes, 18 nM
Time to read-out: about 2 to 2.5 days of knockdown, then 8 h LDL uptake
Treatment: DiI-labelled LDL at 30 µg/ml for 8 h, in lipoprotein-deficient serum medium
Measured: 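Fluorescent LDL signal imaged in cells, scaled to the plate median, robust z-score for each replicate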
Direction: robust z-score: higher = more LDL uptake after knockdown
Active means: 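Active when two or more replicates show a robust z-score above 2 or below -2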
The deposit covers about 22,000 reagents; this is a part drawn at random. Over the whole deposit, about 1,510 (6.9%) are marked active. 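Active includes knockdowns raising or lowering LDL uptake; positive z-scores mean more uptake, negative mean less.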 A number with no mark means an inactive call.

gene symbol | PubChem SID | robust z-score, replicate 1 | robust z-score, replicate 2 | robust z-score, replicate 3
MAMSTR | SID442891554 | 0.315 | 0.172 | 0.33
PGLS (6-phosphogluconolactonase) | SID442885926 | 1.08 | 1.36 | 1.53
LOC345537 (retired record) | SID442903338 | -1.15 | -1.39 | -1.29
XKR7 (XK related 7) | SID442886632 | 1 | 1.1 | 1.2
ODF1 (outer dense fiber of sperm tails 1) | SID442889613 | 0.707 | 0.94 | -0.0452
SDR9C7 (short chain dehydrogenase/reductase family 9C member 7) | SID442900322 | -0.703 | -1.07 | -0.459
DUS1L (dihydrouridine synthase 1 like) | SID442896267 | -0.852 | 0.171 | -0.0832
LOC392089 (retired record) | SID442903870 | -1.3 | -1.32 | -1.63
NKAPP1 (NFKB activating protein pseudogene 1) | SID442902495 | -1.37 | -1.35 | -0.555
GDF3 (growth differentiation factor 3) | SID442894310 | -0.427 | 0.338 | -0.0594
NR1H3 (nuclear receptor subfamily 1 group H member 3) | SID442897597 | -1.05 | -0.247 | 0.0917
BAMBI (BMP and activin membrane bound inhibitor) | SID442897410 | 0.29 | -1.58 | 0.138
RDH13 (retinol dehydrogenase 13) | SID442890903 | -0.0581 | 1.09 | 0.0315
LOC441126 (retired record) | SID442903044 | -1.01 | -1.4 | -1.19
SRGAP3 (SLIT-ROBO Rho GTPase activating protein 3) | SID442898314 | -0.261 | 0.152 | -1.35
ZNF653 (zinc finger protein 653) | SID442896556 | -0.359 | -0.0251 | -0.473
DEFB105A (defensin beta 105A) | SID442903623 | -1.26 | -1.5 | -1.26
WDR31 (WD repeat domain 31) | SID442901203 | -0.478 | -1.91 | -0.206
FABP5 (fatty acid binding protein 5) | SID442899171 | 1.42 | -0.472 | -2.71
PLEKHG4 (pleckstrin homology and RhoGEF domain containing G4) | SID442886664 | 0.971 | 1.38 | 0.927
E2F1 (E2F transcription factor 1) | SID442885271 | 1.43 | 1.79 | 1.54
WDR77 (WD repeat domain 77) | SID442889379 | 0.762 | 0.595 | 0.35
TMEM138 (transmembrane protein 138) | SID442884300 | -1.24 (active) | -2.22 | -2.14
CLDN11 (claudin 11) | SID442898073 | -0.218 | -0.681 | -0.477
DEPDC7 (DEP domain containing 7) | SID442887654 | 1.18 | 0.996 | 0.424
PIK3C3 (phosphatidylinositol 3-kinase catalytic subunit type 3) | SID442898008 | -0.221 | -0.524 | -0.609
BRSK2 (BR serine/threonine kinase 2) | SID442895550 | 0.489 | -0.634 | -0.395
GNB4 (G protein subunit beta 4) | SID442887285 | 1.11 | 0.907 | 0.822
TMEM107 (transmembrane protein 107) | SID442896365 | -0.485 | -0.507 | 0.197
DUSP15 (dual specificity phosphatase 15) | SID442897232 | -0.553 | 0.11 | -0.643
S100A11 (S100 calcium binding protein A11) | SID442892273 | 0.0499 | -0.148 | 0.664
TIA1 (TIA1 cytotoxic granule associated RNA binding protein) | SID442885880 | 0.959 | 1.52 | 1.53
ATP23 | SID442884152 | 0.41 (active) | 3.19 | 2.02
GOLGA6L9 (golgin A6 family like 9) | SID442896151 | -0.134 | -0.419 | -0.176
TMT1A (thiol methyltransferase 1A) | SID442901435 | -0.835 | -0.743 | -1.12
ABITRAMP1 (ABITRAM pseudogene 1) | SID442893611 | 0.0415 | -0.587 | 0.635
STARD5 (StAR related lipid transfer domain containing 5) | SID442892175 | 0.195 | 1.09 | -0.689
RHOF (ras homolog family member F, filopodia associated) | SID442900871 | -0.812 | -1.21 | -0.441
FERD3L (Fer3 like bHLH transcription factor) | SID442891779 | 0.0557 | 0.294 | 0.388
ANKRD36B (ankyrin repeat domain 36B) | SID442890821 | 0.519 | 0.0517 | 0.526
SMCR8 (SMCR8-C9orf72 complex subunit) | SID442903375 | -1.18 | -1.6 | -1.07
ADAM15 (ADAM metallopeptidase domain 15) | SID442892795 | -0.0874 | 0.144 | 0.312
CTSB (cathepsin B) | SID442885571 | 1.02 | 1.43 | 1.94
TMED5 (transmembrane p24 trafficking protein 5) | SID442886657 | 0.569 | 1.45 | 1.27
RHOD (ras homolog family member D) | SID442892690 | 0.281 | -0.353 | 0.478
WNT11 (Wnt family member 11) | SID442886587 | 5.38 | -0.822 | -1.21
RGS18 (regulator of G protein signaling 18) | SID442886881 | 1.01 | 1.09 | 1.02
LAMP1 (lysosome associated membrane protein 1) | SID442894726 | -0.0146 | 0.0306 | -0.3
ENSA (endosulfine alpha) | SID442885468 | 0.986 | 1.77 | 1.75
VHLL (VHL like) | SID442895269 | 0.217 | -1.03 | 0.363
RPL35P1 (ribosomal protein L35 pseudogene 1) | SID442902835 | -1.15 | -0.864 | -1.46
TRAF1 (TNF receptor associated factor 1) | SID442900634 | -1.65 | 0.0725 | -0.779
DNM1P9 (dynamin 1 pseudogene 9) | SID442885208 | 1.33 | 1.73 | 1.8
MUCL3 (mucin like 3) | SID442883849 | 2.39 (active) | 2.71 | 1.62
ZNF121 (zinc finger protein 121) | SID442895594 | -0.085 | -0.286 | -0.183
ATP8B3 (ATPase phospholipid transporting 8B3) | SID442887938 | 1.21 | 0.249 | 0.983
SLC25A28 | SID442887929 | 0.964 | 0.522 | 0.956
SIRT5 (sirtuin 5) | SID442895494 | -0.425 | -0.28 | 0.182
OPTC (opticin) | SID442889515 | 0.7 | 1.8 | -0.861
VTCN1 (V-set domain containing T cell activation inhibitor 1) | SID442890150 | 0.507 | 0.622 | 0.242
PI4K2B (phosphatidylinositol 4-kinase type 2 beta) | SID442898720 | -0.707 | -0.288 | -0.594
IL7R (interleukin 7 receptor) | SID442900714 | -0.568 | -1.03 | -0.789
ARAP2-AS1 (ARAP2 antisense RNA 1) | SID442895502 | -0.0438 | -0.452 | -0.0297
MYH7B (myosin heavy chain 7B) | SID442899610 | -0.848 | -0.952 | -0.13
HSP90AA3P | SID442898213 | -0.524 | -0.185 | -0.711
LOC391362 (retired record) | SID442893570 | 0.699 | -0.252 | -0.344
LOC391459 (retired record) | SID442902619 | -0.834 | -1.19 | -1.32
FUCA1 (alpha-L-fucosidase 1) | SID442891817 | 0.264 | 0.249 | 0.212

Sorted by “robust z-score, replicate 3” (low to high): some entries from above
gene symbol | PubChem SID | robust z-score, replicate 1 | robust z-score, replicate 2 | robust z-score, replicate 3
RPL35P1 (ribosomal protein L35 pseudogene 1) | SID442902835 | -1.15 | -0.864 | -1.46
TRAF1 (TNF receptor associated factor 1) | SID442900634 | -1.65 | 0.0725 | -0.779
LAMP1 (lysosome associated membrane protein 1) | SID442894726 | -0.0146 | 0.0306 | -0.3
VHLL (VHL like) | SID442895269 | 0.217 | -1.03 | 0.363
RGS18 (regulator of G protein signaling 18) | SID442886881 | 1.01 | 1.09 | 1.02
ENSA (endosulfine alpha) | SID442885468 | 0.986 | 1.77 | 1.75
DNM1P9 (dynamin 1 pseudogene 9) | SID442885208 | 1.33 | 1.73 | 1.8
